Measurements reported in the supplement of paper PMC8728848.
The other results are listed elsewhere or left out.

What was measured:
Test in all cases: glycan array binding signal (z-score within array); higher = stronger binding
Conditions in all cases: glycan notation: IUPAC condensed, linker removed
Fuc(a1-2)Gal = biological target: Fuc(a1-2)Gal
Method in brief: (§1)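 Glycan array data were curated from 3228 arrays in the Consortium for Functional Glycomics database and kept only where the protein sequence was available. Glycan names were converted to IUPAC-condensed notation, and columns mapping to the same glycan were averaged. The binding signal is a within-array Z-score, averaged across arrays of the same protein sequence at different concentrations or buffers and across linkers. Negative Z-scores can be read as non-binding.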

Fuc(a1-2)Gal(b1-3)GalNAc = biological target: Fuc(a1-2)Gal(b1-3)GalNAc
Method in brief: as §1

[1] = biological target: Fuc(a1-2)Gal(b1-3)GalNAc(a1-3)[Fuc(a1-2)]Gal(b1-4)Glc
Method in brief: as §1

[2] = biological target: Fuc(a1-2)Gal(b1-3)GalNAc(a1-3)[Fuc(a1-2)]Gal(b1-4)GlcNAc
Method in brief: as §1

[3] = biological target: Fuc(a1-2)Gal(b1-3)GalNAc(b1-3)Gal
Method in brief: as §1

[4] = biological target: Fuc(a1-2)Gal(b1-3)GalNAc(b1-3)Gal(a1-4)Gal(b1-4)Glc
Method in brief: as §1

[5] = biological target: Fuc(a1-2)Gal(b1-3)GalNAc(b1-4)[Neu5Ac(a2-3)]Gal(b1-4)Glc
Method in brief: as §1

Fuc(a1-2)Gal(b1-3)GlcNAc = biological target: Fuc(a1-2)Gal(b1-3)GlcNAc
Method in brief: as §1

[6] = biological target: Fuc(a1-2)Gal(b1-3)GlcNAc(b1-2)Man(a1-3)[Fuc(a1-2)Gal(b1-3)GlcNAc(b1-2)Man(a1-6)]Man(b1-4)GlcNAc(b1-4)GlcNAc
Method in brief: as §1

[7] = biological target: Fuc(a1-2)Gal(b1-3)GlcNAc(b1-2)Man(a1-3)[Fuc(a1-2)Gal(b1-3)GlcNAc(b1-2)Man(a1-6)]Man(b1-4)GlcNAc(b1-4)[Fuc(a1-6)]GlcNAc
Method in brief: as §1

[8] = biological target: Fuc(a1-2)Gal(b1-3)GlcNAc(b1-3)Gal(b1-4)Glc
Method in brief: as §1

[9] = biological target: Fuc(a1-2)Gal(b1-3)GlcNAc(b1-3)GalNAc
Method in brief: as §1

[10] = biological target: Fuc(a1-2)Gal(b1-3)GlcNAc(b1-3)[Fuc(a1-2)Gal(b1-3)GlcNAc(b1-6)]GalNAc
Method in brief: as §1

[11] = biological target: Fuc(a1-2)Gal(b1-3)GlcNAc(b1-3)[Gal(b1-4)GlcNAc(b1-6)]Gal(b1-4)Glc
Method in brief: as §1

[12] = biological target: Fuc(a1-2)Gal(b1-3)GlcNAc(b1-3)[Neu5Ac(a2-6)Gal(b1-4)GlcNAc(b1-6)]Gal(b1-4)Glc
Method in brief: as §1

[13] = biological target: Fuc(a1-2)Gal(b1-3)GlcNAc6S
Method in brief: as §1

[14] = biological target: Fuc(a1-2)Gal(b1-3)[Fuc(a1-4)]GlcNAc
Method in brief: as §1

[15] = biological target: Fuc(a1-2)Gal(b1-3)[Fuc(a1-4)]GlcNAc(b1-2)Man(a1-3)[Fuc(a1-2)Gal(b1-3)[Fuc(a1-4)]GlcNAc(b1-2)Man(a1-3)]Man(b1-4)GlcNAc(b1-4)GlcNAc
Method in brief: as §1

[16] = biological target: Fuc(a1-2)Gal(b1-3)[Fuc(a1-4)]GlcNAc(b1-2)Man(a1-3)[Fuc(a1-2)Gal(b1-3)[Fuc(a1-4)]GlcNAc(b1-2)Man(a1-6)]Man(b1-4)GlcNAc(b1-4)[Fuc(a1-6)]GlcNAc(b1-4)[Fuc(a1-6)]GlcNAc
Method in brief: as §1

[17] = biological target: Fuc(a1-2)Gal(b1-3)[Fuc(a1-4)]GlcNAc(b1-3)[Fuc(a1-3)[Gal(b1-4)]GlcNAc(b1-6)]Gal(b1-4)Glc
Method in brief: as §1

[18] = biological target: Fuc(a1-2)Gal(b1-3)[Fuc(a1-4)]GlcNAc(b1-3)[Gal(b1-4)GlcNAc(b1-6)]Gal(b1-4)Glc
Method in brief: as §1

Fuc(a1-2)Gal(b1-4)Glc = biological target: Fuc(a1-2)Gal(b1-4)Glc
Method in brief: as §1

Fuc(a1-2)Gal(b1-4)Glc6S = biological target: Fuc(a1-2)Gal(b1-4)Glc6S
Method in brief: as §1

Fuc(a1-2)Gal(b1-4)GlcNAc = biological target: Fuc(a1-2)Gal(b1-4)GlcNAc
Method in brief: as §1

[19] = biological target: Fuc(a1-2)Gal(b1-4)GlcNAc(b1-2)Man
Method in brief: as §1

[20] = biological target: Fuc(a1-2)Gal(b1-4)GlcNAc(b1-2)Man(a1-3)[Fuc(a1-2)Gal(b1-4)GlcNAc(b1-2)Man(a1-6)]Man(b1-4)GlcNAc(b1-4)GlcNAc
Method in brief: as §1

[21] = biological target: Fuc(a1-2)Gal(b1-4)GlcNAc(b1-2)Man(a1-3)[Fuc(a1-2)Gal(b1-4)GlcNAc(b1-2)Man(a1-6)]Man(b1-4)GlcNAc(b1-4)[Fuc(a1-6)]GlcNAc
Method in brief: as §1

[22] = biological target: Fuc(a1-2)Gal(b1-4)GlcNAc(b1-2)[Fuc(a1-2)Gal(b1-4)GlcNAc(b1-4)]Man(a1-3)[Fuc(a1-2)Gal(b1-4)GlcNAc(b1-2)Man(a1-6)]Man(b1-4)GlcNAc(b1-4)GlcNAc
Method in brief: as §1

[23] = biological target: Fuc(a1-2)Gal(b1-4)GlcNAc(b1-3)Gal(b1-4)GlcNAc
Method in brief: as §1

[24] = biological target: Fuc(a1-2)Gal(b1-4)GlcNAc(b1-3)Gal(b1-4)GlcNAc(b1-2)Man(a1-3)[Fuc(a1-2)Gal(b1-4)GlcNAc(b1-3)Gal(b1-4)GlcNAc(b1-2)Man(a1-6)]Man(b1-4)GlcNAc(b1-4)GlcNAc
Method in brief: as §1

[25] = biological target: Fuc(a1-2)Gal(b1-4)GlcNAc(b1-3)Gal(b1-4)GlcNAc(b1-3)Gal(b1-4)GlcNAc
Method in brief: as §1

[26] = biological target: Fuc(a1-2)Gal(b1-4)GlcNAc(b1-3)GalNAc
Method in brief: as §1

[27] = biological target: Fuc(a1-2)Gal(b1-4)GlcNAc(b1-3)[Fuc(a1-2)Gal(b1-4)GlcNAc(b1-6)]GalNAc
Method in brief: as §1

[28] = biological target: Fuc(a1-2)Gal(b1-4)GlcNAc(b1-3)[Fuc(a1-3)[Gal(b1-4)]GlcNAc(b1-6)]Gal(b1-4)Glc
Method in brief: as §1

[29] = biological target: Fuc(a1-2)Gal(b1-4)GlcNAc(b1-6)GalNAc
Method in brief: as §1

[30] = biological target: Fuc(a1-2)Gal(b1-4)GlcNAc6S
Method in brief: as §1

[31] = biological target: Fuc(a1-2)Gal(b1-4)[Fuc(a1-3)]GlcNAc
Method in brief: as §1

B1: Sp8391B-bot-388-20-388 (Bacteroides ovatus) (protein)
chain: GCQNNDENEQHYDNKLFISASNFTKEILFKAGDTNVETGLSVAIAKPEEHDIKVTMSPAPELLSTYKLAYYDETAVLLSEEHYSMPETSTTIKSGSIVSPELPIEFINTGELDIKTTYVLPVTIKSVEGIGVLQSAKTYYYVFRGASLINVVCNISRNRAYPDFKNDSKFNNLTENTMEILFKANSFPNTLNTLMGIESNYLLRIGDATIPNNQLQVATSVNNCTSADLQLESGKWYHVAVAFNKGNVKVYINGVEKLSGSTGKSSVSLGAKHTNEEDGSRCFWVGYSYKDDRYFDGVVSEVRIWNRALTAEEIQATNHFYTIEPESEGLIAYWKFDEGSGTVAKDYSVSGYDLTIEKEPKWESVSLPQ
Fuc(a1-2)Gal
  glycan array binding signal (z-score): -0.522
Fuc(a1-2)Gal(b1-3)GalNAc
  glycan array binding signal (z-score): -0.893
[1]
  glycan array binding signal (z-score): -0.312
[2]
  glycan array binding signal (z-score): -0.275
[3]
  glycan array binding signal (z-score): 0.241
[4]
  glycan array binding signal (z-score): -1.11
[5]
  glycan array binding signal (z-score): 0.477
Fuc(a1-2)Gal(b1-3)GlcNAc
  glycan array binding signal (z-score): -0.986
[6]
  glycan array binding signal (z-score): 2.69
[7]
  glycan array binding signal (z-score): -0.241
[8]
  glycan array binding signal (z-score): 0.015
[9]
  glycan array binding signal (z-score): -0.855
[10]
  glycan array binding signal (z-score): 1.16
[11]
  glycan array binding signal (z-score): -0.322
[12]
  glycan array binding signal (z-score): -0.282
[13]
  glycan array binding signal (z-score): -0.483
[14]
  glycan array binding signal (z-score): -0.823
[15]
  glycan array binding signal (z-score): 1.35
[16]
  glycan array binding signal (z-score): 0.399
[17]
  glycan array binding signal (z-score): -0.358
[18]
  glycan array binding signal (z-score): 1.29
Fuc(a1-2)Gal(b1-4)Glc
  glycan array binding signal (z-score): -0.701
Fuc(a1-2)Gal(b1-4)Glc6S
  glycan array binding signal (z-score): 1.62
Fuc(a1-2)Gal(b1-4)GlcNAc
  glycan array binding signal (z-score): -0.588
[19]
  glycan array binding signal (z-score): -1.39
[20]
  glycan array binding signal (z-score): 0.667
[21]
  glycan array binding signal (z-score): 1.1
[22]
  glycan array binding signal (z-score): 0.922
[23]
  glycan array binding signal (z-score): 0.428
[24]
  glycan array binding signal (z-score): -0.411
[25]
  glycan array binding signal (z-score): 0.169
[26]
  glycan array binding signal (z-score): -0.606
[27]
  glycan array binding signal (z-score): 0.788
[28]
  glycan array binding signal (z-score): 0.172
[29]
  glycan array binding signal (z-score): 0.145
[30]
  glycan array binding signal (z-score): 0.092
[31]
  glycan array binding signal (z-score): -0.307
